Laboratory results as given in article PMC6010280.

T1: intein-BHMT (betaine homocysteine S-methyltransferase) (R. norvegicus) (UniProt O09171)
T1 sequence: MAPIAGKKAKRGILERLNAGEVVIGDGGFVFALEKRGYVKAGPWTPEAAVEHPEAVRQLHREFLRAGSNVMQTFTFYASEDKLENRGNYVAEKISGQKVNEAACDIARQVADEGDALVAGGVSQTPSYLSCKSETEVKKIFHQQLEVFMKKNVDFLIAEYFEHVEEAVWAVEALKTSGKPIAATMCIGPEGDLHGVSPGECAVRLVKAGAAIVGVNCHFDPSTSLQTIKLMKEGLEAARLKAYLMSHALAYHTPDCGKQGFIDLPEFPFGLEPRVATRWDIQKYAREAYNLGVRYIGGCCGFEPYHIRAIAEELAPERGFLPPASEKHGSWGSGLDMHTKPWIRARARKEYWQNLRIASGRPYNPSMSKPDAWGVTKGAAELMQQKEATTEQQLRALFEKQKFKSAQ


Biological target: T1, intein-BHMT (betaine homocysteine S-methyltransferase) (R. norvegicus)
Experiment: affinity purification with mass spectrometry; intein-BHMT held on chitin beads; rat liver cytosol first passed over a bead-only and an intein column; 10 mM sodium phosphate pH 7.4, 5 mM EDTA, 0.1 mM EGTA, 4°C; bound proteins eluted with a 0-500 mM NaCl gradient (peak at 50-100 mM NaCl); LC-MS/MS; only the target purified

Row | Binder | binding
1 | Transglutaminase 2, C polypeptide (protein, UniProt Q9WVJ6 1-686) MAEELNLERCDLEIQANGRDHHTADLCQQKLVLRRGQRFRLTLYFEGRGYEASVDRLTFGAVTGPDPSEEAGTKARFSLSDDVEEGSWSASVLDQQDNVLSLQLCTPANAPVGQYRLSLETSTGYQGSSFMLGHFILLFNAWCPADDVYLDSEAERREYVLTQQGFIYQGSVKFIKSVPWNFGQFEDGILDACLMLLDVNPKFLKDRSRDCSRRSSPIYVGRVVSGMVNCNDDQGVLLGRWDNNYGDGISPMAWIGSVDILRRWKEHGCQQVKYGQCWVFAAVACTVLRCLGIPTRVVTNYNSAHDQNSNLLIEYFRNEYGELESNKSEMIWNFHCWVESWMTRPDLQPGYEGWQAIDPTPQEKSEGTYCCGPVSVRAIKEGDLSTKYDASFVFAEVNADVVDWIRQSDGSVLKSINNSLVVGQKISTKSVGRDDREDITYTYKYPEGSPEEREVFTRANHLNKLAEKEETGVAMRIRVGDGMSLGNDFDVFAHIGNDTSESRECRLLLCARTVSYNGVLGPECGTEDINLTLDPYSENSIPLRILYEKYSGCLTESNLIKVRGLLVEPAANSYLLAERDLYLENPEIKIRILGEPKQNRKLVAEVSLKNPLSDSLYDCVFTVEGAGLTKEQKSVEVSDPVPAGDAVKVRVDLFPTDIGLHKLVVNFQCDKLKSVKGYRNIIIGPA | binds
2 | NADPH oxidase 3 (protein, UniProt Q672K1 1-568) MPTCWILNESVSFVVALLWLAINIYLFIDTFCWYAEEESFFYTRVILGSALAWARASAVCLNFNCMLILLPVSRNFVSLVRGTSVCCRGPWRRQLDKNLKFHKLVAYGIAVNSVIHIVAHLFNLERYHLGQAKDAEGLLAALSKLGNAPNESYLNPVRTLYTGTTTQLLMTVSGITGLVISLALILIMTSSTEFIRQSSYELFWYTHHIFIFLFISLAIHGGGRIIRGQTPESLRLHNVTFCRDHFDEWQEAASCPVPQFSGKEPSAWKWTLGPVVLYACEIIIRFWRSHQEVVITKVVSHPSAVLELHMKKRDFKMAPGQYIFIQCPSISPLEWHPFTLTSAPQEDFFSVHIRASGDWTEALLKAFGAEGQAPSELCSMPRLAVDGPFGGSLADVFHYPVSVCIATGIGVTPFASLLKSVWYKCCESQSLPGLSKVYFYWICRDAAAFEWFADLLLSLETQMSEQGKAHLLSYHIYLTGWDEYQAIHIALHWDESLDVITGLKQKTFYGRPNWNEEFKQIAYNHPSSSIGVFFCGPKAMSKTLQKMCRLYSSSDPRGVHFYYNKENF | binds
3 | C1QBP Complement component 1 Q subcomponent-binding protein, mitochondrial (protein, UniProt O35796 72-279) LHTEGDKAFVEFLTDEIKEEKKIQKHKSLPKMSGDWELEVNGTEAKLLRKVAGEKITVTFNINNSIPPTFDGEEEPSQGQKAEEQEPELTSTPNFVVEVTKTDGKKTLVLDCHYPEDEIGHEDEAESDIFSIKEVSFQTTGDSEWRDTNYTLNTDSLDWALYDHLMDFLADRGVDNTFADELVELSTALEHQEYITFLEDLKSFVKSQ | binds
4 | ENPP6 Ectonucleotide pyrophosphatase/phosphodiesterase family member 6 (protein, UniProt B0BND0 23-419) HRKLLVLLLDGFRSDYISEDALASLPGFREIVNRGVKVDYLTPDFPSLSYPNYYTLMTGRHCEVHQMIGNYMWDPRTNKSFDIGVNRDSLMPLWWNGSEPLWITLMKARRKVYMYYWPGCEVEILGVRPTYCLEYKNVPTDINFANAVSDALDSLKSGRADLAAIYHERIDVEGHHYGPSSPQRKDALKAVDTVLKYMTQWIQERGLQNDLNVILFSDHGMTDIFWMDKVIELSKYISLDDLQQVKDQGPVVSLWPVPEKHSEIYHKLRTVEHMTVYEKEAIPNRFYYKKGKFVSPLTLVADEGWFIAESREALPFWMNSTGKREGWQHGWHGYDNELMDMRGIFLAFGPDFKSNFRAAPIRSVDVYNIMCNVVGITPLPNNGSWSRVVCMLKSQTS | binds
5 | SSBP1 Single-stranded DNA-binding protein, mitochondrial (protein, UniProt P28042 17-151) ESEVASSLVLERSLNRVQLLGRVGQDPVMRQVEGKNPVTIFSLATNEMWRSGDNEAYQMGDVSQKTTWHRISVFRPGLRDVAYQYVKKGARIFVEGKVDYGEYMDKNNVRRQATTIIADNIIFLSDQAREKPLNG | binds
6 | Acetyl-CoA acetyltransferase, mitochondrial (protein, UniProt P17764 31-424) ASKPTLNDVVIVSATRTPIGSFLGSLASQPATKLGTIAIQGAIEKAGIPKEEVKEVYMGNVIQGGEGQAPTRQATLGAGLPIATPCTTVNKVCASGMKAIMMASQSLMCGHQDVMVAGGMESMSNVPYVMSRGATPYGGVKLEDLIVKDGLTDVYNKIHMGNCAENTAKKLSISREEQDKYAIGSYTRSKEAWDAGKFANEITPITISVKGKPDVVVKEDEEYKRVDFSKVPKLKTVFQKENGTVTAANASTLNDGAAAVVLMTAEAAQRLKVKPLARIAAFADAAVDPIDFPLAPAYAVPKVLKYAGLKKEDIAMWEVNEAFSVVVLANIKMLEIDPQKVNVHGGAVSLGHPIGMSGARIVVHLAHALKQGEFGLASICNGGGGASAVLIEKL | binds

Now from value to binder:

Row | binding | Binder
7 | binds | Guanine nucleotide binding protein, alpha 14 (protein, UniProt Q5EAP4 1-355) MAGCCCLSAEEKESQRISAEIERQLRRDKKDARRELKLLLLGTGESGKSTFIKQMRIIHGSGYSDEDRKGFTKLVYQNIFTAMQAMIRAMDTLRIQYTCEQNKENAQIIREVEVDKVSAISRDQVAAIKQLWLDPGIQECYDRRREYQLSDSAKYYLTDIDRIAMPSFVPTQQDVLRVRVPTTGIIEYPFDLENIIFRMVDVGGQRSERRKWIHCFESVTSIIFLVALSEYDQVLAECDNENRMEESKALFKTIITYPWFLNSSVILFLNKKDLLEEKIMYSHLISYFPEYTGPKQDVKAARDFILKLYQDQNPDKEKVIYSHFTCATDTENIRFVFAAVKDTILQLNLREFNLV
8 | binds | Heterogeneous nuclear ribonucleoprotein H2 (protein, UniProt Q6AY09 1-449) MMLSTEGREGFVVKVRGLPWSCSAEEVMRFFSDCKIQNGTSGVRFIYTREGRPSGEAFVELESEDEVKLALKKDRETMGHRYVEVFKSNSVEMDWVLKHTGPNSPDTANDGFVRLRGLPFGCSKEEIVQFFSGLEIVPNGMTLPVDFQGRSTGEAFVQFASQEIAEKALKKHKERIGHRYIEIFKSSRAEVRTHYDPPRKLMTMQRPGPYDRPGAGRGYNSIGRGAGFERMRRGAYGGGYGGYDDYGGYNDGYGFGSDRFGRDLNYCFSGMSDHRYGDGGSSFQSTTGHCVHMRGLPYRATENDIYNFFSPLNPMRVHIEIGPDGRVTGEADVEFATHEDAVAAMAKDKANMQHRYVELFLNSTAGTSGGAYDHSYVELFLNSTAGASGGAYGSQMMGGMGLSNQSSYGGPASQQLSAGYGGGYGGQSSMSGYDQVLQENSSDYQSNLA
9 | binds | Tissue-type transglutaminase (protein, UniProt Q9WVJ6 1-686) MAEELNLERCDLEIQANGRDHHTADLCQQKLVLRRGQRFRLTLYFEGRGYEASVDRLTFGAVTGPDPSEEAGTKARFSLSDDVEEGSWSASVLDQQDNVLSLQLCTPANAPVGQYRLSLETSTGYQGSSFMLGHFILLFNAWCPADDVYLDSEAERREYVLTQQGFIYQGSVKFIKSVPWNFGQFEDGILDACLMLLDVNPKFLKDRSRDCSRRSSPIYVGRVVSGMVNCNDDQGVLLGRWDNNYGDGISPMAWIGSVDILRRWKEHGCQQVKYGQCWVFAAVACTVLRCLGIPTRVVTNYNSAHDQNSNLLIEYFRNEYGELESNKSEMIWNFHCWVESWMTRPDLQPGYEGWQAIDPTPQEKSEGTYCCGPVSVRAIKEGDLSTKYDASFVFAEVNADVVDWIRQSDGSVLKSINNSLVVGQKISTKSVGRDDREDITYTYKYPEGSPEEREVFTRANHLNKLAEKEETGVAMRIRVGDGMSLGNDFDVFAHIGNDTSESRECRLLLCARTVSYNGVLGPECGTEDINLTLDPYSENSIPLRILYEKYSGCLTESNLIKVRGLLVEPAANSYLLAERDLYLENPEIKIRILGEPKQNRKLVAEVSLKNPLSDSLYDCVFTVEGAGLTKEQKSVEVSDPVPAGDAVKVRVDLFPTDIGLHKLVVNFQCDKLKSVKGYRNIIIGPA
10 | binds | Keratin, type II cytoskeletal 1 (protein, UniProt Q6IMF3 1-625) MSFQCSSRSLCRSGGGGGGRNFSSGSAGLVSFQRRSTSSSMRRSGGGGGGRFSGGGFCGSSGGGFGSKSLVNLGGGRSISISVAGGGSSYGGGFGGGSYGGGSFGGGSFGGGVGGGFGGGGFGGGGFGSGGGFGGGRFGGGFGPVCPPGGIQEVTINQSLLQPLNVEVDPQIQKVKSQEREQIKSLNDKFASFIDKVRFLEQQNQVLQTKWELLQQVDTSTRTQNLDPFFESYISNLRRQVDSLKNDQSRMDSELKNMQDLVEEYRTKYEDEINKRTNAENEFVTIKKDVDSAYMNKAELQARVDNLQQDIDFFSTLYQMELSQMQTQISETNVVLSMDNNRTLDLDGIIAEVKAQYDSICQRSKAEAETFYQSKYEELQITAGKHGDSVKNTKMEISELNRVIQRLRSEIDSVKKQISQMQQNISDAEQRGEKALKDAQNKLNEIEDALTQAKEELTRLLRDYQELMNTKLALDMEIATYRKLLEGEEIRMSGECTPNVSVSVSTSHTSMSGTSSRGGGRYGSGGGGGGGTYGGGSRGGSYGGGSGGGSYGGCSSGGGSGGGSYGGGSSGGHRGGSGGGGGSSGGSYGGSSGGGRGGSSSGGGVKSSGSSSVKFVSTTYSRGTN
11 | binds | Cytochrome P450 2B3 (entry P13107) (protein, UniProt P13107 1-491) MDTSVLLLLAVLLSFLLFLVRGHAKVHGHLPPGPRPLPLLGNLLQMDRGGFRKSFIQLQEKHGDVFTVYFGPRPVVMLCGTQTIREALVDHAEAFSGRGIIAVLQPIMQEYGVSFVNEERWKILRRLFVATMRDFGIGKQSVEDQIKEEAKCLVEELKNHQGVSLDPTFLFQCVTGNIICSIVFGERFDYRDRQFLRLLDLLYRTFSLISSFSSQMFEVYSDFLKYFPGVHREIYKNLKEVLDYIDHSVENHRATLDPNAPRDFIDTFLLHMEKEKLNHYTEFHHWNLMISVLFLFLAGTESTSNTLCYGFLLMLKYPHVAEKVQKEIDQVIGSQRVPTLDDRSKMPYTEAVIHEIQRFSDVSPMGLPCRITKDTLFRGYLLPKNTEVYFILSSALHDPQYFEQPDTFNPEHFLDANGALKKCEAFMPFSIGKRMCLGEGIARSELFLFFTTILQNYSVSSPVDPNTIDMTPKESGLAKVAPVYKICFVAR
12 | binds | RAB10 Ras-related protein Rab-10 (protein, UniProt P35281 1-200) MAKKTYDLLFKLLLIGDSGVGKTCVLFRFSDDAFNTTFISTIEIDFKIKTVELQGKKIKLQIWDTAGQERFHTITTSYYRGAMGIMLVYDITNGKSFENISKWLRNIDQHANEDVERMLLRNKCDMDHKRVVPKGKGEQIAREHRIRFFETSAKANINIEKAFLTLPEDILRKTPVKEPNSENVDISSGGGVTGWKSKCC

No constants are given. Whether binding was seen depends on the method and setting. In cells and extracts the contact can be indirect. Here binding means that the protein was enriched with, or labelled near, the bait; the list need not be complete.
